PubChem BioAssay AID743121 | NCATS, 2013
The whole screen tested about 26,000 reagents; shown is a part drawn at random. 167 of them (0.63%) count as active. 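Calls are per gene from RSA p-values that are not deposited; an individual active-marked siRNA can sensitise only weakly.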 Unmarked entries are inactive. Reagents against one gene are numbered here. Further read-outs or replicates are left out here.

- Aim: 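Genes whose silencing strengthens cell killing by camptothecin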 (primary screen)
- Cells: MDA-MB-231 cells, a human breast cancer line
- Knock-down reagent: single siRNA against human genes, 20 nM siRNA (0.8 pmol per well)
- Duration: 120 h (drug added 48 h after transfection, read 72 h later)
- Challenge: camptothecin 20 nM (about EC30) for 72 h; vehicle 0.1% DMSO in parallel plates
- Read-out: 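CellTiter-Glo ATP signal, scaled to control siRNA as percent viability; sensitisation given as log2 of untreated divided by camptothecin-treated viability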
- Scale: log2 vehicle/camptothecin viability: higher = stronger sensitisation to camptothecin; viability with camptothecin: higher = more viable cells
- Units: viability with camptothecin in % of control
- Rule for the call: 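Each gene scored by redundant siRNA activity (RSA) over its individual siRNA ratios; a gene is called active at p < 0.001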

{"gene knocked down": "ZDHHC3", "reagent": 1, "log2 vehicle/camptothecin viability": -0.114, "viability with camptothecin": 153}
{"gene knocked down": "ZDHHC3", "reagent": 2, "log2 vehicle/camptothecin viability": -0.265, "viability with camptothecin": 72.4}
{"gene knocked down": "ZDHHC3", "reagent": 3, "log2 vehicle/camptothecin viability": -0.096, "viability with camptothecin": 103}
{"gene knocked down": "ZDHHC3", "reagent": 4, "log2 vehicle/camptothecin viability": -0.205, "viability with camptothecin": 105}
{"gene knocked down": "RNF14", "reagent": 1, "log2 vehicle/camptothecin viability": -0.161, "viability with camptothecin": 101}
{"gene knocked down": "RNF14", "reagent": 2, "log2 vehicle/camptothecin viability": -0.2, "viability with camptothecin": 109}
{"gene knocked down": "RNF14", "reagent": 3, "log2 vehicle/camptothecin viability": -0.128, "viability with camptothecin": 71.6}
{"gene knocked down": "RNF14", "reagent": 4, "log2 vehicle/camptothecin viability": -0.221, "viability with camptothecin": 121}
{"gene knocked down": "GPR19", "reagent": 1, "log2 vehicle/camptothecin viability": -0.0152, "viability with camptothecin": 98.9}
{"gene knocked down": "GPR19", "reagent": 2, "log2 vehicle/camptothecin viability": 0.313, "viability with camptothecin": 27.3}
{"gene knocked down": "GPR19", "reagent": 3, "log2 vehicle/camptothecin viability": -0.425, "viability with camptothecin": 97.5}
{"gene knocked down": "GPR19", "reagent": 4, "log2 vehicle/camptothecin viability": -0.137, "viability with camptothecin": 70.3}
{"gene knocked down": "SNED1", "reagent": 1, "log2 vehicle/camptothecin viability": -0.124, "viability with camptothecin": 83.1}
{"gene knocked down": "SNED1", "reagent": 2, "log2 vehicle/camptothecin viability": -0.143, "viability with camptothecin": 66.1}
{"gene knocked down": "SNED1", "reagent": 3, "log2 vehicle/camptothecin viability": 0.0688, "viability with camptothecin": 83.8}
{"gene knocked down": "CALCA", "reagent": 1, "log2 vehicle/camptothecin viability": -0.317, "viability with camptothecin": 65.1}
{"gene knocked down": "CALCA", "reagent": 2, "log2 vehicle/camptothecin viability": 0.358, "viability with camptothecin": 79.2}
{"gene knocked down": "CALCA", "reagent": 3, "log2 vehicle/camptothecin viability": -0.302, "viability with camptothecin": 126}
{"gene knocked down": "CALCA", "reagent": 4, "log2 vehicle/camptothecin viability": -0.068, "viability with camptothecin": 100}
{"gene knocked down": "CALCA", "reagent": 5, "log2 vehicle/camptothecin viability": -0.191, "viability with camptothecin": 79.9}
{"gene knocked down": "CALCA", "reagent": 6, "log2 vehicle/camptothecin viability": -0.468, "viability with camptothecin": 77}
{"gene knocked down": "CALCA", "reagent": 7, "log2 vehicle/camptothecin viability": -0.261, "viability with camptothecin": 74.5}
{"gene knocked down": "CALCA", "reagent": 8, "log2 vehicle/camptothecin viability": 0.184, "viability with camptothecin": 77.4}

5 neighbouring records from above, quoted:
{"gene knocked down": "GPR19", "reagent": 1, "log2 vehicle/camptothecin viability": -0.0152, "viability with camptothecin": 98.9}
{"gene knocked down": "GPR19", "reagent": 2, "log2 vehicle/camptothecin viability": 0.313, "viability with camptothecin": 27.3}
{"gene knocked down": "GPR19", "reagent": 3, "log2 vehicle/camptothecin viability": -0.425, "viability with camptothecin": 97.5}
{"gene knocked down": "GPR19", "reagent": 4, "log2 vehicle/camptothecin viability": -0.137, "viability with camptothecin": 70.3}
{"gene knocked down": "SNED1", "reagent": 1, "log2 vehicle/camptothecin viability": -0.124, "viability with camptothecin": 83.1}

Further reagents follow:
{"gene knocked down": "OR2B11", "reagent": 1, "log2 vehicle/camptothecin viability": -0.149, "viability with camptothecin": 73}
{"gene knocked down": "OR2B11", "reagent": 2, "log2 vehicle/camptothecin viability": 0.196, "viability with camptothecin": 84.3}
{"gene knocked down": "OR2B11", "reagent": 3, "log2 vehicle/camptothecin viability": -0.417, "viability with camptothecin": 79.6}
{"gene knocked down": "OR2B11", "reagent": 4, "log2 vehicle/camptothecin viability": -0.439, "viability with camptothecin": 80.8}
{"gene knocked down": "STK17A", "reagent": 1, "log2 vehicle/camptothecin viability": 0.191, "viability with camptothecin": 28.6}
{"gene knocked down": "STK17A", "reagent": 2, "log2 vehicle/camptothecin viability": -0.168, "viability with camptothecin": 105}
{"gene knocked down": "STK17A", "reagent": 3, "log2 vehicle/camptothecin viability": 0.0614, "viability with camptothecin": 95.4}
{"gene knocked down": "STK17A", "reagent": 4, "log2 vehicle/camptothecin viability": 0.0281, "viability with camptothecin": 92.1}
{"gene knocked down": "PFKP", "reagent": 1, "log2 vehicle/camptothecin viability": -0.392, "viability with camptothecin": 114}
{"gene knocked down": "PFKP", "reagent": 2, "log2 vehicle/camptothecin viability": 0.828, "viability with camptothecin": 54}
{"gene knocked down": "PFKP", "reagent": 3, "log2 vehicle/camptothecin viability": -0.283, "viability with camptothecin": 59.2}
{"gene knocked down": "PFKP", "reagent": 4, "log2 vehicle/camptothecin viability": -0.323, "viability with camptothecin": 44.1}
